The campaign covered roughly 390,000 compounds. About 4,000 (1%) were called active. The shares of active, inactive and inconclusive entries below differ from those in the screen. Calls come from the whole dose curve; as a rule, active = well fitted inhibition curve with a large enough effect; inconclusive = small, poorly fitted or top-dose-only effect, or another doubt; inactive = no such curve, though single readings can be large or run the other way. Where the call is inconclusive, the potency comes from a doubtful curve fit.
Molecular target: DNA polymerase iota (Homo sapiens) (UniProt Q9UNA4)
Assay: qHTS for Inhibitors of Polymerase Iota
Conditions: Pol iota fluorescent replication assay, 10 min; series mostly up to 115 µM; activity, negative = inhibition: at the top concentration
How it was run: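 Fluorescent replication assay read twice, at 0 min and 10 min after adding 50 nM (final) substrate. Enzyme (10 nM) and compounds were first incubated 15 min at room temperature; enzyme-free buffer wells were negative controls.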
Potency is the fitted concentration of half-maximal effect.

The chains behind the UniProt entries cited, without tags or fusion partners. Where a name states a change or a piece, a line headed by the entry shows the natural chain unless it says otherwise.
UniProt Q9UNA4: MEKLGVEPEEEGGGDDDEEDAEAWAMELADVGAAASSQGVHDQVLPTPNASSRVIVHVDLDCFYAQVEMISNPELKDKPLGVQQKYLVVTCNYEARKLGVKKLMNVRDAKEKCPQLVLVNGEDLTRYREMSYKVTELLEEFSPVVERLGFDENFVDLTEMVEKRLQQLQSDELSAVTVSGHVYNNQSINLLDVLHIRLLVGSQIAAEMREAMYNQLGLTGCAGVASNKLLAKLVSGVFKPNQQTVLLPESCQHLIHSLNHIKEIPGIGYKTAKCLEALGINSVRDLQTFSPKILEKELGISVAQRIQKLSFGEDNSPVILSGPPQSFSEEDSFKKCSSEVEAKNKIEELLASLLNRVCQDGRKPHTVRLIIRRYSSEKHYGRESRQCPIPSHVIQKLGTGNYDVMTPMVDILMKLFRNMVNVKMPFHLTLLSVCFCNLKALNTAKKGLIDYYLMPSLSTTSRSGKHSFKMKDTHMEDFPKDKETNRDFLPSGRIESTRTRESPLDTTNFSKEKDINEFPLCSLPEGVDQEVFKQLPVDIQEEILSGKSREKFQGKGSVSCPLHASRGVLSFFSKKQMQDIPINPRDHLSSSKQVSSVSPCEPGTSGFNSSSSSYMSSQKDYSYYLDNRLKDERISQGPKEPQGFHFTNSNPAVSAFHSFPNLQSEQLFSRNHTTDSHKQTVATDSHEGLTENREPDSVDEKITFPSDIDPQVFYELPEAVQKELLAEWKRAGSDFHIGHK

| SMILES | Potency | activity, negative = inhibition |
| --- | --- | --- |
| O=C(N[C@@H](c1ccccc1)[C@@H]1C[C@H]1C(=O)O)OCc1ccccc1 | inconclusive: 89.1 µM [inhibitor, single point] | – |
| CC(C)(C)c1ccc(OCc2ccc(C(=O)N3CCOCC3)o2)cc1 | inconclusive: 89.1 µM [inhibitor, partial curve, poor fit] | – |
| CC(C)(C)c1ccc(Oc2ccc(NC(=O)c3ccco3)cn2)cc1 | inconclusive: 2.82 µM [inhibitor, full curve] | – |
| C=CCNc1nc(C(=O)OCC(=O)c2ccccc2)cs1 | inconclusive: 79.4 µM [inhibitor, partial curve] | – |
| CNCc1nc2ccccc2[nH]1 | inconclusive: 31.6 µM [inhibitor, partial curve] | – |
| CC(NS(=O)(=O)c1ccccc1)C(=O)NCc1ccco1 (stereo unspecified) | active: 39.8 µM | – |
| COC(=O)CNC(c1ccccc1)c1cc(Br)ccc1N (stereo unspecified) | inconclusive: 89.1 µM [inhibitor, single point] | – |
| COc1ccccc1NC(=O)c1c(O)c2ccccc2[nH]c1=O | inconclusive: 79.4 µM [inhibitor, partial curve, poor fit] | – |
| O=c1c(OC2OC(CO)C(O)C(O)C2OC2OC(CO)C(O)C(O)C2OC2OC(CO)C(O)C(O)C2O)c(-c2ccc(O)c(O)c2)oc2cc(O)cc(O)c12 (stereo unspecified) | active: 50.1 µM | – |
| Cc1nc2ccc(S(=O)(=O)N(C)CC(=O)Nc3ccc(Br)c(C)c3)cc2s1 | – | inactive: 34.3% |
| O=C(NC1CC1)c1cccc2c1C(=O)c1ccc(N3CCC(Cc4ccccc4)CC3)cc1S2(=O)=O | inconclusive: 63.1 µM [inhibitor, partial curve, poor fit] | – |
| O=C(NCC(c1cccs1)N1CCOCC1)C1CCN(S(=O)(=O)c2cc(Cl)ccc2Cl)CC1 (stereo unspecified) | inconclusive: 100 µM [inhibitor, single point] | – |
| CC(C)COC(=O)c1ccc2c(c1O)C(=O)c1ccccc1C2=O | – | inactive: 4.44% |
| COc1ccc(-c2nc3sc(CCNC(=O)c4cc(Cl)ccc4OC)c(C)n3n2)cc1 | inconclusive: 3.55 µM [inhibitor, partial curve, poor fit] | – |
| Cc1oc2c(cc(NS(=O)(=O)c3ccc4c5c(cccc35)C(=O)N4)c3ccccc32)c1C(=O)OC(C)C | inconclusive: 31.6 µM [inhibitor, single point] | – |
| CC1=NN(c2nc(-c3ccc(Cl)cc3)cs2)C(=O)C1 | inconclusive: 1.26 µM [inhibitor, full curve, poor fit] | – |
| CC(C)(C)CC(C)(C)NC(=O)CSCC(=O)Nc1ccc2ccccc2c1 | inconclusive: 10 µM [inhibitor, single point] | – |
| COc1cc(/C=N/Nc2nc(Nc3ccc(C)cc3)nc(-n3nc(C)cc3C)n2)cc(OC)c1OC | – | inactive: 1.73% |
| COc1ccc(O)c(/C=N/NC(=O)c2c(C)nnn2-c2nonc2N)c1 | inconclusive: 17.8 µM [inhibitor, full curve, poor fit] | – |
| Cc1cc(OC(=O)c2ccco2)c(Sc2ccccc2[N+](=O)[O-])c(=O)o1 | inconclusive: 28.2 µM [inhibitor, single point] | – |
| Cc1c(/C=C(\C#N)C(=O)Nc2cccc(Cl)c2)c2ccccc2n1Cc1ccccc1Cl | inconclusive: 100 µM [inhibitor, single point] | – |

| SMILES | Potency | activity, negative = inhibition |
| --- | --- | --- |
| CCOC(=O)c1c(NC(=O)c2ccc(S(=O)(=O)N(CCOC)CCOC)cc2)sc2c1CC(C)(C)NC2(C)C | – | inactive: -7.7% |
| CC1=NN(c2ccc(F)cc2)C(=O)C1C(c1cccc(O)c1)c1c(C)[nH]n(-c2ccc(F)cc2)c1=O (stereo unspecified) | – | inactive: -90.7% |
| Cc1ccoc1C(=O)NCc1occc1C(=O)O | inconclusive: 11.2 µM [inhibitor, partial curve, poor fit] | – |
| COc1ccc2cc3cc(C(=O)NCc4ccc5c(c4)OCO5)oc3nc2c1 | inconclusive: 22.4 µM [inhibitor, full curve, poor fit] | – |
| Cc1ccc(S(=O)(=O)SCCCSS(=O)(=O)c2ccc(C)cc2)cc1 | – | inactive: 3.79% |
| OCCC1CN(Cc2cnc(-c3cccc4ccccc34)nc2)CCN1C1CCCCC1 (stereo unspecified) | inconclusive: 89.1 µM [inhibitor, single point] | – |
| Cc1nc(SCc2nc3ccc(C(=O)c4ccccc4)cc3[nH]2)c2oc3ccccc3c2n1 | inconclusive: 39.8 µM [inhibitor, partial curve, poor fit] | – |
| CCN(CC)c1cc2c(cc1F)c(=O)c(S(=O)(=O)c1cc(C)ccc1C)cn2Cc1ccccc1 | – | inactive: -8.82% |
| CC1(N2CCOCC2)CC2(O)C(=[N+]1[O-])CCc1c2no[n+]1[O-] (stereo unspecified) | inconclusive: 2.82 µM [inhibitor, full curve, poor fit] | – |
| O=C(COC(=O)c1ccc(NS(=O)(=O)c2cccs2)cc1)NCc1ccco1 | active: 8.91 µM | – |
| COCCNc1nc(NCc2ccccc2OC)c2cnn(C)c2n1 | – | inactive: -8.2% |
| Nn1c(SCC(=O)Nc2nc3ccccc3s2)nncc1=O | inconclusive: 14.1 µM [inhibitor, partial curve, poor fit] | – |
| O=C(Cc1ccccc1)N/N=C\c1ccc(Br)o1 | inconclusive: 100 µM [inhibitor, partial curve, poor fit] | – |
| CC(Sc1oc(-c2ccco2)nc1S(=O)(=O)c1ccc(Br)cc1)c1ccccc1 (stereo unspecified) | inconclusive: 79.4 µM [inhibitor, partial curve] | – |
| COc1cccc(NC(=O)C/C(C)=N/NC(=O)c2ccccc2Cl)c1 | inconclusive: 10 µM [inhibitor, partial curve, poor fit] | – |
| Cc1cccc(C)c1NC(=O)C(Cl)C(=O)c1ccccc1 (stereo unspecified) | inconclusive: 25.1 µM [inhibitor, partial curve, poor fit] | – |
| CCOc1ccc(N=C2NC(=O)/C(=C/C(=O)OC)S2)cc1 | – | inactive: -6.36% |
| N=c1c2c3c(sc2ncn1CCN1CCOCC1)CCCCC3 | inconclusive: 79.4 µM [inhibitor, partial curve] | – |
| Cc1ccc(NC(=O)CN(C)C(=O)c2cc(-c3ccco3)nc3ccccc23)cc1 | active: 17.8 µM | – |
| N#Cc1ccccc1NC(=O)c1cc(=O)c2ccccc2o1 | inconclusive: 100 µM [inhibitor, partial curve, poor fit] | – |

Look-ups from above:
Value of CC(Sc1oc(-c2ccco2)nc1S(=O)(=O)c1ccc(Br)cc1)c1ccccc1 (stereo unspecified) under Potency: inconclusive: 79.4 µM [inhibitor, partial curve]
Value of CC1=NN(c2ccc(F)cc2)C(=O)C1C(c1cccc(O)c1)c1c(C)[nH]n(-c2ccc(F)cc2)c1=O (stereo unspecified) under activity, negative = inhibition: inactive: -90.7%
Value of O=C(Cc1ccccc1)N/N=C\c1ccc(Br)o1 under Potency: inconclusive: 100 µM [inhibitor, partial curve, poor fit]
